Experimental data: patent US20020086017A1, “GA binding protein and neurite derived growth factors for use in the treatment of muscular dystrophy” (published 2002)
These are yes or no findings as the source states them, for the method shown. Some binding calls cover weakened binding; strength is not graded here. Sequences can lack the tags named with a protein.

Protein sequences, listed by entry. Tags and fused reporters are not part of them.
UniProt Q06547: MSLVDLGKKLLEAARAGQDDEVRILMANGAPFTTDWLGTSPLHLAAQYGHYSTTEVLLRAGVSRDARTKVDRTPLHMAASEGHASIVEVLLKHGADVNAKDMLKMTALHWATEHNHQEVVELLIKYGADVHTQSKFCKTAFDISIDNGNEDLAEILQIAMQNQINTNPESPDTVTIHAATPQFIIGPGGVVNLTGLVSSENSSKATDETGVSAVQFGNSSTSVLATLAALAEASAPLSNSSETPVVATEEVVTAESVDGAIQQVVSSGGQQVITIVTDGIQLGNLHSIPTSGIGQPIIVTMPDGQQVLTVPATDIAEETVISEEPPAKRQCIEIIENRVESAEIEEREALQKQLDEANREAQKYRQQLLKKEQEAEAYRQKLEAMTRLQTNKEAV

Target: T1, GABP-α GST fusion protein (human) (UniProt Q06546)
T1 sequence (looked up): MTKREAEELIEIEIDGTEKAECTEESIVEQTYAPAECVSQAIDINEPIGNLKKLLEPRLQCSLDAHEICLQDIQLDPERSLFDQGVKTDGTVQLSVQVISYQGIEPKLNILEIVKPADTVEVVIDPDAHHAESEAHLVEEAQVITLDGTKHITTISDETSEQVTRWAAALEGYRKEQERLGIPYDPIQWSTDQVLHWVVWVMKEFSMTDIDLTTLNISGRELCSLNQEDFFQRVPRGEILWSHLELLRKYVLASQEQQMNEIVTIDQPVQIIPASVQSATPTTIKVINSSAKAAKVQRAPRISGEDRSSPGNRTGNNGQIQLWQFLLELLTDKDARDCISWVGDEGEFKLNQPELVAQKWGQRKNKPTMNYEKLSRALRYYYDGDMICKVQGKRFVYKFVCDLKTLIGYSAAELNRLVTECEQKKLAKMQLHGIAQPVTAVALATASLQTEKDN
Assay: EMSA with radiolabelled UtroNBox DNA probe and purified GST fusion proteins

## GABP-β GST fusion protein (from UniProt Q06547 1-395)
  binding: binds
